According to article PMC10645886:
These are yes or no findings as the source states them, for the method shown. In cells and extracts the contact can be indirect. Here binding means that the protein was enriched with, or labelled near, the bait; the list need not be complete.

Protein sequences, listed by entry. Tags and fused reporters are not part of them. Residues count along the entry.
UniProt Q9UHD2: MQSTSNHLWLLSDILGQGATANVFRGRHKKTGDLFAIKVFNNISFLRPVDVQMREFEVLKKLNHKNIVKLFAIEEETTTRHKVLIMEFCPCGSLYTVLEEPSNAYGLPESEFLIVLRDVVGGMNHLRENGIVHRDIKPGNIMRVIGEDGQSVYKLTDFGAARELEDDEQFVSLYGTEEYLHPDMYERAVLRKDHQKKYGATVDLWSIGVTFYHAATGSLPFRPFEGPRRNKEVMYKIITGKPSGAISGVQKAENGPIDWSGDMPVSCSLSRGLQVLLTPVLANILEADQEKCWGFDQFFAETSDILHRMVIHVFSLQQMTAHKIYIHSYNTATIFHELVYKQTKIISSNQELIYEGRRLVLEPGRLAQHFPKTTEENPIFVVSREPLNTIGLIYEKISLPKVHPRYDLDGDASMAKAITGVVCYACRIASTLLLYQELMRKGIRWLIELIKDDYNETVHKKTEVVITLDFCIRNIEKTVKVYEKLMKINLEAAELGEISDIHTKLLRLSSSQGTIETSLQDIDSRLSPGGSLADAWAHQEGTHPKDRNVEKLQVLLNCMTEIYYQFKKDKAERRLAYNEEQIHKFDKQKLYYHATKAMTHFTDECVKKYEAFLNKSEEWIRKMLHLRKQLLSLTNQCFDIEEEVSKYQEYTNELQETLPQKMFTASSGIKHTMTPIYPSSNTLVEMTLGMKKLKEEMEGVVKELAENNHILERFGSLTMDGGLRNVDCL
UniProt P51617: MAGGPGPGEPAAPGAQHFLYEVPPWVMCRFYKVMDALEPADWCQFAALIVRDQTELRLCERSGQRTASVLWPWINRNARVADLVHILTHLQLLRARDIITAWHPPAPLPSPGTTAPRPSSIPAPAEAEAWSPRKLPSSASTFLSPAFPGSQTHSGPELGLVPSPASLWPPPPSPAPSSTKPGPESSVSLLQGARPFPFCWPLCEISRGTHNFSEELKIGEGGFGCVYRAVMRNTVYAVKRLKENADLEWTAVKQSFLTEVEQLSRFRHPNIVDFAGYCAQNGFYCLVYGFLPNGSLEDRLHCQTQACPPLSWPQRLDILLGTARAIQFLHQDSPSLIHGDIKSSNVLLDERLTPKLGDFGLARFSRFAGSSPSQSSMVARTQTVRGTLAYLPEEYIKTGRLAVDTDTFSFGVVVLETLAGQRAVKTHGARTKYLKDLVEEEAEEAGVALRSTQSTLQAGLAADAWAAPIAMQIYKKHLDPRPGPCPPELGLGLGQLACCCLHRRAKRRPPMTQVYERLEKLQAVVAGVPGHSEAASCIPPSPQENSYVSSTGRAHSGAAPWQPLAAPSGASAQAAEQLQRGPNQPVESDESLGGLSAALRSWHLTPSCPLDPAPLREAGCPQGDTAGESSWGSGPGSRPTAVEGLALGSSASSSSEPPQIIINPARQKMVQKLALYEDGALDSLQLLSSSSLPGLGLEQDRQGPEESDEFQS
UniProt Q7Z434: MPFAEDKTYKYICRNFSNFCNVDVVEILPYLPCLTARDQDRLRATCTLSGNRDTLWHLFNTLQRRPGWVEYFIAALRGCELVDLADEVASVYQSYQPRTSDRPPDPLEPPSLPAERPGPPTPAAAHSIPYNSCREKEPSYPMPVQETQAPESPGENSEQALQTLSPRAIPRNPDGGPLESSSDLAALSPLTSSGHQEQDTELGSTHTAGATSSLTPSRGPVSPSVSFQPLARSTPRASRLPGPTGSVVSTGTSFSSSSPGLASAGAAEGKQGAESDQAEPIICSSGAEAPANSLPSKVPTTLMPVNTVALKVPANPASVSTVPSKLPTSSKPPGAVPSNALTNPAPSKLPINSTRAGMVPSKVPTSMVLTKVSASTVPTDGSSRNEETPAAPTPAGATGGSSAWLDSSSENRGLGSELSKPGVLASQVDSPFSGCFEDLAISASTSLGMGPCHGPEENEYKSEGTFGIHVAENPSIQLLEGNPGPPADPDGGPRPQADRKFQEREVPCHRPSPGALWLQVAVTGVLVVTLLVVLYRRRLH
UniProt Q9Y6K9: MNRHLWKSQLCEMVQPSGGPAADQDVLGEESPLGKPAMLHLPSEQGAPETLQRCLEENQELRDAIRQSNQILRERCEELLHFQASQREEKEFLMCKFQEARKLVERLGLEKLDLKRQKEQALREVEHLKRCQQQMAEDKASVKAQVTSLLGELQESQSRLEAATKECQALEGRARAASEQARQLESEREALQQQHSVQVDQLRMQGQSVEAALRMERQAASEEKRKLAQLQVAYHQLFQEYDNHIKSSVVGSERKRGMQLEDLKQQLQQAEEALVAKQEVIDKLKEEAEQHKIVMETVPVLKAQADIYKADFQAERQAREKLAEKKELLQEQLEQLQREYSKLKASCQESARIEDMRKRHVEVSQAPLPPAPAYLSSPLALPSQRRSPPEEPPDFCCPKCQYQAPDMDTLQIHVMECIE
UniProt P78504, residues 34-1218: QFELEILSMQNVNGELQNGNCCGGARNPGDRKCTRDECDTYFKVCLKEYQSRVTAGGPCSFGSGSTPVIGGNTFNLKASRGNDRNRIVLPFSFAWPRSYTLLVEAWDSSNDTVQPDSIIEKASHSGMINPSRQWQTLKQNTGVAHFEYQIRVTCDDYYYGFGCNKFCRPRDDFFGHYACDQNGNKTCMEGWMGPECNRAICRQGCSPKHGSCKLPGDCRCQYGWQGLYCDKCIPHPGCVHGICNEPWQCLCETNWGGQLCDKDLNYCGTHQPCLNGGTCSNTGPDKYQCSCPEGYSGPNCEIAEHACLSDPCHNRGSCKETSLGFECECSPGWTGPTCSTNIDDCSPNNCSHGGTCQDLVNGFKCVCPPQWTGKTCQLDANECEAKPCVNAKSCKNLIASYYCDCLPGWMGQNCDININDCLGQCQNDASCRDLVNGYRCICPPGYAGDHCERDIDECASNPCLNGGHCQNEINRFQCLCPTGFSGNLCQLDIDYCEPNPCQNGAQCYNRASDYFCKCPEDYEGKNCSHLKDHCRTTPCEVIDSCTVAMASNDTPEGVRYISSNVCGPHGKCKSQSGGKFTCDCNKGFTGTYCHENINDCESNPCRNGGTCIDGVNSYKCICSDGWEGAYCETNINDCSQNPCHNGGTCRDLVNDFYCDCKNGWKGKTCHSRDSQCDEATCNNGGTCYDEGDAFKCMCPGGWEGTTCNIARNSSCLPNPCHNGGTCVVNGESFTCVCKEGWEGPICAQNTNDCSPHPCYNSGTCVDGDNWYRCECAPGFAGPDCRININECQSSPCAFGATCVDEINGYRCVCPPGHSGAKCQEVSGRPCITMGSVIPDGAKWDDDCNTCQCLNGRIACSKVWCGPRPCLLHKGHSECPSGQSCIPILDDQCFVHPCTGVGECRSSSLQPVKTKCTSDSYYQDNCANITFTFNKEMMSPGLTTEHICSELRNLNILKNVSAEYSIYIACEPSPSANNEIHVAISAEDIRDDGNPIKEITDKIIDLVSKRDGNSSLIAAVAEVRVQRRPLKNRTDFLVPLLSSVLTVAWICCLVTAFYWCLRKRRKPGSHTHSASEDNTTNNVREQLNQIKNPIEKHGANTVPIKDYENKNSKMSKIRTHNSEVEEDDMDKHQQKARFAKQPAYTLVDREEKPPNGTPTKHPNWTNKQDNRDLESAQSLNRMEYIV
UniProt Q04206: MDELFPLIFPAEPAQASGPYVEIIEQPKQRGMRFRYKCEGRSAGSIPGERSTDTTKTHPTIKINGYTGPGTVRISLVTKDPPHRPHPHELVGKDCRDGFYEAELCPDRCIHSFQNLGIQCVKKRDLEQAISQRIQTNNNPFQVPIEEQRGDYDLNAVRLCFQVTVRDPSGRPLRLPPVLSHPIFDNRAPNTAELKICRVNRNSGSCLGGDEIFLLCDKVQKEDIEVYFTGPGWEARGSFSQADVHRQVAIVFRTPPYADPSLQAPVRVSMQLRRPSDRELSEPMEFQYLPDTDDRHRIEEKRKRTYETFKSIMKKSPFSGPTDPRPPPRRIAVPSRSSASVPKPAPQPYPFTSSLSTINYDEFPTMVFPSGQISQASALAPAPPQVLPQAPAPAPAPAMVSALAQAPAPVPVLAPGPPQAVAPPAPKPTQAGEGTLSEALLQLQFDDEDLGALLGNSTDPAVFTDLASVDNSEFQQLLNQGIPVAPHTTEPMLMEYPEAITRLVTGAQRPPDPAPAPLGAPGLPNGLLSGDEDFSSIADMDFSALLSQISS
UniProt P24821, residues 23-2201: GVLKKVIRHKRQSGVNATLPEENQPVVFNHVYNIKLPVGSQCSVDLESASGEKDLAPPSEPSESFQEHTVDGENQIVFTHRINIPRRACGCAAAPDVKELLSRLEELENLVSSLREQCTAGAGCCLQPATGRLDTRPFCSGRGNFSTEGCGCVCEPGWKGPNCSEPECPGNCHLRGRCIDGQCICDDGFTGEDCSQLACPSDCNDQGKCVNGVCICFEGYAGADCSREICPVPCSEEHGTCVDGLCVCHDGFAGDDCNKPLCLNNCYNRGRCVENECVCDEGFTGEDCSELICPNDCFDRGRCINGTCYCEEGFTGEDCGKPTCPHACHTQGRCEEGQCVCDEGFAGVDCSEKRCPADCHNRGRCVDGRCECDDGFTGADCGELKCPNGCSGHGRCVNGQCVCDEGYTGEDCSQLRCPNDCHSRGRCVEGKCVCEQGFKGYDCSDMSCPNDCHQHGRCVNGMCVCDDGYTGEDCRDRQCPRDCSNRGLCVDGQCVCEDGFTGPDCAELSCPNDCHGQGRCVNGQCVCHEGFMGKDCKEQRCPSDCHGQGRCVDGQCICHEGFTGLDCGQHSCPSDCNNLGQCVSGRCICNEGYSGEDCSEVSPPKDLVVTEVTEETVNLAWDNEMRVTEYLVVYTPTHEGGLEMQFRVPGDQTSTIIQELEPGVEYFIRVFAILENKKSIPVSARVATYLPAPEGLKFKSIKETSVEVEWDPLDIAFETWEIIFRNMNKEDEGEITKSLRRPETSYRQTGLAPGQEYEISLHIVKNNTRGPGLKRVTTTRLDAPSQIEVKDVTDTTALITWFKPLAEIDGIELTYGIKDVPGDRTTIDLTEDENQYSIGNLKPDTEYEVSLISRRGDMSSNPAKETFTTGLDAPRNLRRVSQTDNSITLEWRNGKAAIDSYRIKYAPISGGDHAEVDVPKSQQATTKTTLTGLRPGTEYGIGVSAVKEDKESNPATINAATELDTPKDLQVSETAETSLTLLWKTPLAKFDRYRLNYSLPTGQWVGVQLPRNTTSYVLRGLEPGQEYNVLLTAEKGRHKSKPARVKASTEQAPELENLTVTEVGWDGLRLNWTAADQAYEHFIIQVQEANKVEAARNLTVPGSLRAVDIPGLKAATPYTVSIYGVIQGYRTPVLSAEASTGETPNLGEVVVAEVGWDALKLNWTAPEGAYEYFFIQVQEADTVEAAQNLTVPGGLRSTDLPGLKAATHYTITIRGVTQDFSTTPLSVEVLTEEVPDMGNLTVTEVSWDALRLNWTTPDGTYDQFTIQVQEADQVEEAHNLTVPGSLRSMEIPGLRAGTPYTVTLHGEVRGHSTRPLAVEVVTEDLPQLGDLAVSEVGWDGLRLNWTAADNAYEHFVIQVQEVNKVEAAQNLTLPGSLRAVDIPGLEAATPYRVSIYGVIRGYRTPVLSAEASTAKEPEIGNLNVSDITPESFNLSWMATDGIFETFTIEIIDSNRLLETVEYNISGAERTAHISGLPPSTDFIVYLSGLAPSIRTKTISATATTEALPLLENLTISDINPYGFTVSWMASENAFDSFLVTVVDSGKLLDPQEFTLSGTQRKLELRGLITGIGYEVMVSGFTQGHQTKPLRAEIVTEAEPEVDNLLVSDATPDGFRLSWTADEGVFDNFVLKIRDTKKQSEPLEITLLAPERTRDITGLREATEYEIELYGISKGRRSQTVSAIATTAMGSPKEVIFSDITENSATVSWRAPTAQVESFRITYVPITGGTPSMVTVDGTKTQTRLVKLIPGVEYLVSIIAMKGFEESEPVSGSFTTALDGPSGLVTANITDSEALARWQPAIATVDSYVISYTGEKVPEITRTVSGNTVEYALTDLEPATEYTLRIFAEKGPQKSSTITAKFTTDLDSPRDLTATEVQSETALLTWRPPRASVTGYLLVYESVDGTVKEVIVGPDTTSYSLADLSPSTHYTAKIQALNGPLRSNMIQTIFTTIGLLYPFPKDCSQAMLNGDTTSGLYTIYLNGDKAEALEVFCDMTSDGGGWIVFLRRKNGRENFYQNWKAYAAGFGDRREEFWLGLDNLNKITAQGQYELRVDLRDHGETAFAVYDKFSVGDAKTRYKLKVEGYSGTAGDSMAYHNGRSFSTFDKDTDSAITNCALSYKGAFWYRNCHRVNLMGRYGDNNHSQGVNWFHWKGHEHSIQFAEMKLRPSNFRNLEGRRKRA

T1: PTP1B bait of the BioID assay (HEK293 Flip-In PTP1B cells) (UniProt P18031)
T1 sequence: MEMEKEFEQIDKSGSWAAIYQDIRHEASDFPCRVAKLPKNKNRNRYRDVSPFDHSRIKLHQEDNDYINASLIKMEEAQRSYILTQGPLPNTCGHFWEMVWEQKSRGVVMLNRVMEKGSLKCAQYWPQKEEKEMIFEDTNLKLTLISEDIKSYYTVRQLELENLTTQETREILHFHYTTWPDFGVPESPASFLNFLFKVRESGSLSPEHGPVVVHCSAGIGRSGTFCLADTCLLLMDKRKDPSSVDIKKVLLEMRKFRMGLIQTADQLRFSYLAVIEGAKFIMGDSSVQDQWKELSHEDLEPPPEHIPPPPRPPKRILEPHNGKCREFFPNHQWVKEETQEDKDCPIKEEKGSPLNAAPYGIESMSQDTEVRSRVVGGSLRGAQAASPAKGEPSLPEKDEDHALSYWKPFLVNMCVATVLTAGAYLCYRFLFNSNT

T2: protein tyrosine phosphatase 1B (PTP1B) (human (endogenous in U251 and KM12SM)) (UniProt P18031)
T2 sequence: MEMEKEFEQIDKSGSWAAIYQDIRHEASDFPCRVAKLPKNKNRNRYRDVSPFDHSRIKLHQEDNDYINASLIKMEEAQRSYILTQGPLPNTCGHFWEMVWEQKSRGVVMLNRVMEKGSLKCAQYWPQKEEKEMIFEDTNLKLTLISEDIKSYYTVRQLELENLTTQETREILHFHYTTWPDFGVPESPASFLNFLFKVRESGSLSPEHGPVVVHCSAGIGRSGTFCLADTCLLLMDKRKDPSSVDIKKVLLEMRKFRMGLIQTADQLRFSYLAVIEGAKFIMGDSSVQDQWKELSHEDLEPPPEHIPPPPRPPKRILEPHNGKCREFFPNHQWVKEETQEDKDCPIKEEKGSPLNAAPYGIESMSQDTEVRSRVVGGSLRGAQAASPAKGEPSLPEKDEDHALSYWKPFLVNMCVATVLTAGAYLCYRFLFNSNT

B1: IKBIP (protein, UniProt Q70UQ0 1-350)
chain: MSEVKSRKKSGPKGAPAAEPGKRSEGGKTPVARSSGGGGWADPRTCLSLLSLGTCLGLAWFVFQQSEKFAKVENQYQLLKLETNEFQQLQSKISLISEKWQKSEAIMEQLKSFQIIAHLKRLQEEINEVKTWSNRITEKQDILNNSLTTLSQDITKVDQSTTSMAKDVGLKITSVKTDIRRISGLVTDVISLTDSVQELENKIEKVEKNTVKNIGDLLSSSIDRTATLRKTASENSQRINSVKKTLTELKSDFDKHTDRFLSLEGDRAKVLKTVTFANDLKPKVYNLKKDFSRLEPLVNDLTLRIGRLVTDLLQREKEIAFLSEKISNLTIVQAEIKDIKDEIAHISDMN
B2: EFHD2 (protein, UniProt Q96C19 1-240)
chain: MATDELATKLSRRLQMEGEGGGETPEQPGLNGAAAAAAGAPDEAAEALGSADCELSAKLLRRADLNQGIGEPQSPSRRVFNPYTEFKEFSRKQIKDMEKMFKQYDAGRDGFIDLMELKLMMEKLGAPQTHLGLKNMIKEVDEDFDSKLSFREFLLIFRKAAAGELQEDSGLCVLARLSEIDVSSEGVKGAKSFFEAKVQAINVSSRFEEEIKAEQEERKKQAEEMKQRKAAFKELQSTFK
B3: NFKBIB (protein, UniProt Q15653 1-356)
chain: MAGVACLGKAADADEWCDSGLGSLGPDAAAPGGPGLGAELGPGLSWAPLVFGYVTEDGDTALHLAVIHQHEPFLDFLLGFSAGTEYMDLQNDLGQTALHLAAILGETSTVEKLYAAGAGLCVAERRGHTALHLACRVGAHACARALLQPRPRRPREAPDTYLAQGPDRTPDTNHTPVALYPDSDLEKEEEESEEDWKLQLEAENYEGHTPLHVAVIHKDVEMVRLLRDAGADLDKPEPTCGRSPLHLAVEAQAADVLELLLRAGANPAARMYGGRTPLGSAMLRPNPILARLLRAHGAPEPEGEDEKSGPCSSSSDSDSGDEGDEYDDIVVHSSRSQTRLPPTPASKPLPDDPRPV
B4: NFKBIE (protein, UniProt O00221 1-500)
chain: MNQRRSESRPGNHRLQAYAEPGKGDSGGAGPLSGSARRGRGGGGAIRVRRPCWSGGAGRGGGPAWAVRLPTVTAGWTWPALRTLSSLRAGPSEPHSPGRRPPRAGRPLCQADPQPGKAARRSLEPDPAQTGPRPARAAGMSEARKGPDEAEESQYDSGIESLRSLRSLPESTSAPASGPSDGSPQPCTHPPGPVKEPQEKEDADGERADSTYGSSSLTYTLSLLGGPEAEDPAPRLPLPHVGALSPQQLEALTYISEDGDTLVHLAVIHEAPAVLLCCLALLPQEVLDIQNNLYQTALHLAVHLDQPGAVRALVLKGASRALQDRHGDTALHVACQRQHLACARCLLEGRPEPGRGTSHSLDLQLQNWQGLACLHIATLQKNQPLMELLLRNGADIDVQEGTSGKTALHLAVETQERGLVQFLLQAGAQVDARMLNGCTPLHLAAGRGLMGISSTLCKAGADSLLRNVEDETPQDLTEESLVLLPFDDLKISGKLLLCTD

Biological target: T1, PTP1B bait of the BioID assay (HEK293 Flip-In PTP1B cells)
Assay: proximity labelling; proximity biotinylation BioID coupled with mass spectrometry in HEK293 Flip-In PTP1B cells; methods in the supplementary information

binding, binds:
CCDC22 (from UniProt O60826 1-627), TBK1 (from UniProt Q9UHD2 1-729), IRAK1 (from UniProt P51617 1-712), MAVS (from UniProt Q7Z434 1-540), B1, B2

Biological target: T2, protein tyrosine phosphatase 1B (PTP1B) (human (endogenous in U251 and KM12SM))
Assay: affinity purification with mass spectrometry; 1 mg of U251 cell lysate immunoprecipitated with anti-PTP1B (#sc-133115) or an irrelevant control antibody; SDS-PAGE, in-gel trypsin digestion, mass spectrometry; fold-change threshold of 3 against the control antibody, CRAPome filter

binding, binds:
NEMO (IKBKG) (from UniProt Q9Y6K9 1-419), casein kinase 2 (CSNK2) (human (endogenous in U251)) (enzyme), JAG1 (from UniProt P78504 34-1218), NF-κB p65 subunit (RELA) (from UniProt Q04206 1-551), fibronectin (FN) (from UniProt P02751 32-2477), Tenascin-C (TNC) (from UniProt P24821 23-2201), B3, B4
